PubChem BioAssay AID1224831 | NIAID | 2016
Purpose: 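Confirming genome-wide hits on LPS-triggered TNF-alpha induction with independent siRNA sequences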 (follow-up of hits). System: human THP-1 B5 monocytic leukaemia cells carrying a TNF promoter luciferase reporter, made macrophage-like with PMA. Knock-down reagent: single siRNA against human genes, 50 nM. Timing: about 68 h of knock-down, then 4 h LPS. Challenge: LPS (Salmonella minnesota, TLR-grade) at 10 ng/ml for 4 h; PMA 5 ng/ml present during knock-down. Measurement: 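TNF promoter reporter read as dual luciferase ratio after 4 h LPS, normalised per plate to its median, given as replicate mean robust z-score per siRNA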. Scale: TNF reporter z-score: higher = stronger LPS-induced TNF reporter signal; z-score, median over gene's siRNAs: higher = stronger TNF reporter signal across the gene's siRNAs. Hit rule: 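Two-sided call: reduced or raised TNF reporter signal counts as active once mean z reaches about -1 or below, or about 1.5 or above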. Calls: active = changed TNF reporter (either direction); inactive = little change.
This is a random part of about 3,500 reagents. In the full data, 731 (21%) got an active call. 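Active means either lowered or raised reporter signal; the gene-median score did not drive the per-siRNA calls.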 A number with no mark means an inactive call. Reagents against one gene are numbered here.

MTA2 #1: TNF reporter z-score, replicate mean = 0.08; z-score, median over gene's siRNAs = -0.27
MTA2 #2: TNF reporter z-score, replicate mean = -0.29; z-score, median over gene's siRNAs = -0.27
MTA2 #3: TNF reporter z-score, replicate mean = -0.25; z-score, median over gene's siRNAs = -0.27
MTA2 #4: TNF reporter z-score, replicate mean = -1.57 (active); z-score, median over gene's siRNAs = -0.27
MTA2 #5: TNF reporter z-score, replicate mean = -1.53 (active); z-score, median over gene's siRNAs = -0.27
MTA2 #6: TNF reporter z-score, replicate mean = 1.95 (active); z-score, median over gene's siRNAs = -0.27
E4F1 #1: TNF reporter z-score, replicate mean = -0.49; z-score, median over gene's siRNAs = 0.285
E4F1 #2: TNF reporter z-score, replicate mean = -0.11; z-score, median over gene's siRNAs = 0.285
E4F1 #3: TNF reporter z-score, replicate mean = 1.02; z-score, median over gene's siRNAs = 0.285
E4F1 #4: TNF reporter z-score, replicate mean = -1.08 (active); z-score, median over gene's siRNAs = 0.285
E4F1 #5: TNF reporter z-score, replicate mean = 0.68; z-score, median over gene's siRNAs = 0.285
E4F1 #6: TNF reporter z-score, replicate mean = 1.04; z-score, median over gene's siRNAs = 0.285

In a second layout: results already given.
gene,reagent,"TNF reporter z-score, replicate mean","z-score, median over gene's siRNAs"
MTA2,1,0.08,-0.27
MTA2,2,-0.29,-0.27

The listing continues.
ATP6V1B2 #1: TNF reporter z-score, replicate mean = -0.21; z-score, median over gene's siRNAs = -0.27
ATP6V1B2 #2: TNF reporter z-score, replicate mean = 0.19; z-score, median over gene's siRNAs = -0.27
ATP6V1B2 #3: TNF reporter z-score, replicate mean = -0.48; z-score, median over gene's siRNAs = -0.27
ATP6V1B2 #4: TNF reporter z-score, replicate mean = -0.76; z-score, median over gene's siRNAs = -0.27
ATP6V1B2 #5: TNF reporter z-score, replicate mean = 1.6 (active); z-score, median over gene's siRNAs = -0.27
ATP6V1B2 #6: TNF reporter z-score, replicate mean = -0.33; z-score, median over gene's siRNAs = -0.27
DNAJA4 #1: TNF reporter z-score, replicate mean = 0.23; z-score, median over gene's siRNAs = 0.33
DNAJA4 #2: TNF reporter z-score, replicate mean = 0.43; z-score, median over gene's siRNAs = 0.33
DNAJA4 #3: TNF reporter z-score, replicate mean = 1.37; z-score, median over gene's siRNAs = 0.33
DNAJA4 #4: TNF reporter z-score, replicate mean = 0.55; z-score, median over gene's siRNAs = 0.33
DNAJA4 #5: TNF reporter z-score, replicate mean = -0.01; z-score, median over gene's siRNAs = 0.33
DNAJA4 #6: TNF reporter z-score, replicate mean = -0.81; z-score, median over gene's siRNAs = 0.33
PRSS23 #1: TNF reporter z-score, replicate mean = 0.53; z-score, median over gene's siRNAs = 0.205
PRSS23 #2: TNF reporter z-score, replicate mean = -0.12; z-score, median over gene's siRNAs = 0.205
PRSS23 #3: TNF reporter z-score, replicate mean = 0.54; z-score, median over gene's siRNAs = 0.205
PRSS23 #4: TNF reporter z-score, replicate mean = -0.66; z-score, median over gene's siRNAs = 0.205
PRSS23 #5: TNF reporter z-score, replicate mean = -1.15 (active); z-score, median over gene's siRNAs = 0.205
PRSS23 #6: TNF reporter z-score, replicate mean = 1.3; z-score, median over gene's siRNAs = 0.205
